# Source: patent US20120172289A1, “MULTIFUNCTIONAL GLYCOPEPTIDE ANTIBIOTIC DERIVATIVES FOR FLUORESCENT IMAGING AND PHOTOACTIVE ANTIMICROBIAL THERAPY” (NANYANG TECHNOLOGICAL UNIVERSITY, priority 2010, published 2012)
# At least one compound was matched to its structure with a doubt left. Some of these results come from one statement about several compounds together.
# Assays:
# Format in all cases: cell-based
# [1] = tested on: Enterococcus faecalis (ATCC 51299, Van B); assay: photodynamic inactivation of bacterial strains, cfu counting; conditions: VanB, 2 μM
# [2] = tested on: Enterococcus faecium (ATCC 51559, Van A); assay: fluorescent imaging of bacterial staining; conditions: E. faecium (VanA), 2 μM
# [3] = tested on: Escherichia coli (ATCC 53868); assay: photodynamic inactivation of bacterial strains, cfu counting; conditions: E. coli, different concentrations and light doses
# [4] = tested on: Bacillus subtilis (ATCC 33677); assay: fluorescent imaging of bacterial staining; conditions: B. subtilis, 2 μM, 1 hour at 37° C.
# [5] = tested on: Enterococcus faecalis (ATCC 51299, Van B); assay: fluorescent imaging of bacterial staining; conditions: E. faecalis (VanB), 2 μM
# [6] = tested on: Enterococcus faecium (ATCC 51559, Van A); assay: photodynamic inactivation of bacterial strains, cfu counting; conditions: VanA, 2 μM
smiles,measurement,setting,value
CCCCCc1c(C)c2cc3nc(cc4[nH]c(cc5nc(cc1[nH]2)C(C)=C5CCN)c(C)c4CCCCC)C(C)=C3CCNC(=O)[C@H]1NC(=O)[C@H]2NC(=O)[C@H](NC(=O)[C@@H]3NC(=O)[C@H](CC(N)=O)NC(=O)[C@H](NC(=O)[C@@H](CC(C)C)NC)[C@H](O)c4ccc(c(Cl)c4)Oc4cc3cc(c4O[C@@H]3O[C@H](CO)[C@@H](O)[C@H](O)[C@H]3O[C@H]3C[C@](C)(N)[C@H](O)[C@H](C)O3)Oc3ccc(cc3Cl)[C@H]2O)c2ccc(O)c(c2)-c2c(O)cc(O)cc21 [Compound 3a],bacterial lethality upon light exposure,[1]; different doses of white light,effective photodynamic inactivation
same,bacterial reduction,[1]; higher doses of irradiation,> 99%
same,fluorescence of stained bacteria,[2],no significant fluorescence
same,bacterial lethality,[3],almost no lethality
same,fluorescence of stained bacteria,[4],obvious fluorescent signals
same,fluorescence of stained bacteria,[5],no significant fluorescence
same,bacterial lethality upon light exposure,[6]; different doses of white light,effective photodynamic inactivation
same,bacterial reduction,[6]; higher doses of irradiation,> 99%
